{
  "source": "paper PMC12402098",
  "about": "“YTHDF3 recognizes DNA N6-methyladenine and recruits ALKBH1 for 6mA removal from genomic DNA” (The EMBO Journal, 2025)",
  "molecular_target": "T1, YTHDF3 MTbind, immunopurified L455M,L461V,V482A,A487T,Y488C,E502D,K504R (Homo sapiens) (UniProt Q7Z739)",
  "T1 sequence (looked up, limits assumed)": "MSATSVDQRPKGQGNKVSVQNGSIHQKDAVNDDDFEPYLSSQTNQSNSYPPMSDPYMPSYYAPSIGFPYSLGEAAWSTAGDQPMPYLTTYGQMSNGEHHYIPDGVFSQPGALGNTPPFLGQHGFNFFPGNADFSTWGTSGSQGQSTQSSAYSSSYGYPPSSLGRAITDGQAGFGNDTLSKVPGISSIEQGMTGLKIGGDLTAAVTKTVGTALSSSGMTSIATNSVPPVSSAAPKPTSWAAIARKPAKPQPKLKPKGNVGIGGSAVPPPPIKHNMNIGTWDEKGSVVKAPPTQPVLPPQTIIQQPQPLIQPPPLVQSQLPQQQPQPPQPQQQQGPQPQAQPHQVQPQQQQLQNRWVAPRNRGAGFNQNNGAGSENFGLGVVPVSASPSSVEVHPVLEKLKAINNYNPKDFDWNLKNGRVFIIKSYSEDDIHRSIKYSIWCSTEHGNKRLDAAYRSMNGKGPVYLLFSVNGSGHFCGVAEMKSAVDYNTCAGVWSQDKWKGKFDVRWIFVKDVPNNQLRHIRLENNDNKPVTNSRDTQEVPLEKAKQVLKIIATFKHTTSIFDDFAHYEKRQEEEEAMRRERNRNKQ",
  "experiment": "pull-down",
  "details": "N6-methyl-dA at A10 of strand 1; pull-down: streptavidin-agarose, 1 nmol DNA, 30 C 30 min; protein in a lysate after overexpression; protein details: Flag; label: 3' biotin strand 1",
  "note": "The exact form of at least one protein or probe is not confirmed. Results from cells or extracts need not show a direct contact. Protein sequences can lack the tags named with them.",
  "data": [
    {"sequence": "CTATGTTTCATGTACCGCCA (double strand) [6mA-ds-oligo]", "values": [
      {"measurement": "binding result", "value": "binds"}
    ]}
  ]
}
